Source: the supplement of paper PMC7646827
Single values are uncertain, as repeats are few or missing.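 All cells are established human bladder cancer lines, one derived from a patient-derived xenograft. A luminescent ATP assay measured viability as percent inhibition relative to vehicle across seven dilutions. The paper rates scores above 59 very active, 30–59 active, 21–29 semi-active, 9–20 low active, below 9 inactive.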

Experiments:
Test in all cases: drug sensitivity score DSS3 (score 0-100); higher = more sensitive; extreme values may be limits of the assay
Conditions in all cases: culture: 3D, ultra-low attachment; treatment time: 5 days
5637 = tested on: 5637
BC8149 = tested on: BC8149
J82 = tested on: J82
SCaBER = tested on: SCaBER
SW780 = tested on: SW780
T-24 = tested on: T-24
TCCSUP = tested on: TCCSUP
UM-UC-12 = tested on: UM-UC-12
UM-UC-14 = tested on: UM-UC-14
UM-UC-15 = tested on: UM-UC-15
UM-UC-17 = tested on: UM-UC-17
UM-UC-18 = tested on: UM-UC-18
UM-UC-1 = tested on: UM-UC-1
UM-UC-3 = tested on: UM-UC-3
UM-UC-5 = tested on: UM-UC-5
UM-UC-6 = tested on: UM-UC-6
UM-UC-9 = tested on: UM-UC-9

Row | SMILES | drug sensitivity score DSS3 5637 | drug sensitivity score DSS3 (BC8149) | drug sensitivity score DSS3 (J82) | drug sensitivity score DSS3 (SCaBER) | drug sensitivity score DSS3 (SW780) | drug sensitivity score DSS3 (T-24) | drug sensitivity score DSS3 (TCCSUP) | drug sensitivity score DSS3 (UM-UC-12) | drug sensitivity score DSS3 (UM-UC-14) | drug sensitivity score DSS3 (UM-UC-15) | drug sensitivity score DSS3 (UM-UC-17) | drug sensitivity score DSS3 (UM-UC-18) | drug sensitivity score DSS3 (UM-UC-1) | drug sensitivity score DSS3 (UM-UC-3) | drug sensitivity score DSS3 (UM-UC-5) | drug sensitivity score DSS3 (UM-UC-6) | drug sensitivity score DSS3 (UM-UC-9)
1 | O=C(O)CNC(=O)c1c(O)c2ccccc2n(Cc2ccccc2)c1=O [IOX2] (max dose 10000 nM) | 0 | 0 | 0 | 0 | 0 | 0.153 | 0 | 0 | 0 | 0 | 0 | 0 | 0 | 0 | 0 | 0 | 0
2 | CC(c1cc2ccccc2s1)N(O)C(N)=O (centres undefined) [Zileuton] (max dose 10000 nM) | 1.82 | 0 | 0 | 0 | 0 | 0 | 3.03 | 0 | 0.00026 | 0 | 0 | 0 | 0.412 | 0 | 0 | 0 | 0
3 | CCN1CCN(c2ccc(Nc3cc(N(C)C(=O)Nc4c(Cl)c(OC)cc(OC)c4Cl)ncn3)cc2)CC1 [BGJ398 (NVP-BGJ398)] (max dose 1000 nM) | 0.185 | 3.93 | 0 | 0 | 0 | 0 | 3.83 | 0 | 0 | 4.09 | 0.0783 | 0.155 | 3.22 | 0 | 0.899 | 0.486 | 0
4 | CC(C)[C@](O)(c1ccc2cc(OC(F)F)c(OC(F)F)cc2c1)c1c[nH]nn1 [VT-464] (max dose 10000 nM) | 0 | 17.7 | 0 | 0 | 0 | 0 | 0 | 0 | 0 | 6.32 | 0 | 0 | 0 | 3.06 | 0 | 0.12 | 0
5 | C[C@@H]1C[C@H]2[C@@H]3CCC4=CC(=O)C=C[C@]4(C)[C@@]3(F)[C@@H](O)C[C@]2(C)[C@@]1(O)C(=O)CO [Dexamethasone (DHAP)] (max dose 10000 nM) | 0 | 0 | 0 | 0 | 0 | 0 | 0 | 0 | 0 | 0 | 0 | 0 | 0 | 16.1 | 0 | 0 | 0
6 | Cc1ccc(-c2c(-c3nn(C)c4ncnc(N5CC[C@H](N6CCCCC6)C5)c34)cnn2C)cc1 (max dose 10000 nM) | 1.61 | 2.24 | 0 | 0 | 0 | 0.182 | 2.83 | 0.873 | 0.963 | 24 | 0.649 | 3.44 | 1.13 | 0.592 | 0 | 0.32 | 0
7 | Cc1ccc(NC(=O)c2ccc(CN3CC[C@H](N(C)C)C3)c(C(F)(F)F)c2)cc1Nc1nccc(-c2cncnc2)n1 [Bafetinib (INNO-406)] (max dose 10000 nM) | 20.5 | 6.03 | 0 | 2.29 | 0 | 0 | 10.6 | 0 | 1.46 | 0 | 4.59 | 1.65 | 7.65 | 1.48 | 4.91 | 2.62 | 0.989
8 | C[C@]12CC[C@@H]3c4ccc(O)cc4CC[C@H]3[C@@H]1CCC2=O [Estrone] (max dose 10000 nM) | 10.2 | 2.31 | 0 | 0 | 0 | 0 | 8.38 | 0 | 0.548 | 0 | 6.69 | 3.87 | 4.07 | 1.19 | 0 | 4.52 | 0
9 | C[C@@H](O[C@H]1OCCN(Cc2n[nH]c(=O)[nH]2)[C@H]1c1ccc(F)cc1)c1cc(C(F)(F)F)cc(C(F)(F)F)c1 [Aprepitant] (max dose 10000 nM) | 0 | 0 | 0 | 0.0571 | 0 | 0 | 1.91 | 0.388 | 0 | 1.85 | 0.0412 | 0 | 0 | 0.0122 | 0 | 0 | 0
10 | CN1CCN(c2ccc(OC(F)(F)F)c(Nc3ncc4c(n3)-c3c(c(C(N)=O)nn3CCO)CC4)c2)CC1 (max dose 10000 nM) | 45.3 | 31 | 1.92 | 9.39 | 13.3 | 0.412 | 45.6 | 9.26 | 27.2 | 0 | 41.4 | 17.5 | 23.5 | 29.8 | 0 | 51.6 | 6.5
11 | O=C(Nc1ccncc1)c1cc([N+](=O)[O-])ccc1Cl (max dose 10000 nM) | 0 | 0 | 0 | 0 | 0 | 0 | 0 | 0 | 0 | 0 | 0 | 3.78 | 0 | 0 | 0 | 0 | 0
12 | CNCc1ccc(-c2cc(-c3nc(-c4ccc(S(=O)(=O)C(C)C)cc4)cnc3N)on2)cc1 [VX-970] (max dose 10000 nM) | 9.27 | 3.64 | 0 | 0.127 | 0 | 0 | 18.5 | 0 | 4.06 | 0 | 5.02 | 0 | 9.7 | 2.82 | 3.13 | 0 | 0

One compound at a time (already shown). Order of values: drug sensitivity score DSS3 5637 | drug sensitivity score DSS3 (BC8149) | drug sensitivity score DSS3 (J82) | drug sensitivity score DSS3 (SCaBER) | drug sensitivity score DSS3 (SW780) | drug sensitivity score DSS3 (T-24) | drug sensitivity score DSS3 (TCCSUP) | drug sensitivity score DSS3 (UM-UC-12) | drug sensitivity score DSS3 (UM-UC-14) | drug sensitivity score DSS3 (UM-UC-15) | drug sensitivity score DSS3 (UM-UC-17) | drug sensitivity score DSS3 (UM-UC-18) | drug sensitivity score DSS3 (UM-UC-1) | drug sensitivity score DSS3 (UM-UC-3) | drug sensitivity score DSS3 (UM-UC-5) | drug sensitivity score DSS3 (UM-UC-6) | drug sensitivity score DSS3 (UM-UC-9)
CC(c1cc2ccccc2s1)N(O)C(N)=O (centres undefined) [Zileuton] (max dose 10000 nM) is listed with 1.82 | 0 | 0 | 0 | 0 | 0 | 3.03 | 0 | 0.00026 | 0 | 0 | 0 | 0.412 | 0 | 0 | 0 | 0
Cc1ccc(NC(=O)c2ccc(CN3CC[C@H](N(C)C)C3)c(C(F)(F)F)c2)cc1Nc1nccc(-c2cncnc2)n1 [Bafetinib (INNO-406)] (max dose 10000 nM) is listed with 20.5 | 6.03 | 0 | 2.29 | 0 | 0 | 10.6 | 0 | 1.46 | 0 | 4.59 | 1.65 | 7.65 | 1.48 | 4.91 | 2.62 | 0.989
